# Assay results taken from publication PMC3378952, “Plasmodium subtilisin-like protease 1 (SUB1): Insights into the active-site structure, specificity and function of a pan-malaria drug target” (International Journal for Parasitology, 2012).
# Results are given in words; binding and its absence hold for the method and conditions named. Some binding calls cover weakened binding; strength is not graded here.
# B1: PfSUB1 prodomain (PD) released by autocatalytic cleavage of rPfSUB1 (domain or fragment)
# chain: KEVRSEENGKIQDDAKKIVSELRFLEKVEDVIEKSNIGGNEVDADENSFNPDTEVPIEEIEEIKMRELKDVKEEKNKNDNHNNNNNNNNISSSSSSSSNTFGEEKEEVSKKKKKLRLIVSENHATTPSFFQESLLEPDVLSFLESKGNLSNLKNINSMIIELKEDTTDDELISYIKILEEKGALIESDKLVS
# Target: T1, recombinant Plasmodium falciparum subtilisin-like protease 1 (rPfSUB1), p54/p47 protease species (Plasmodium falciparum) (UniProt O61142)
# T1 sequence: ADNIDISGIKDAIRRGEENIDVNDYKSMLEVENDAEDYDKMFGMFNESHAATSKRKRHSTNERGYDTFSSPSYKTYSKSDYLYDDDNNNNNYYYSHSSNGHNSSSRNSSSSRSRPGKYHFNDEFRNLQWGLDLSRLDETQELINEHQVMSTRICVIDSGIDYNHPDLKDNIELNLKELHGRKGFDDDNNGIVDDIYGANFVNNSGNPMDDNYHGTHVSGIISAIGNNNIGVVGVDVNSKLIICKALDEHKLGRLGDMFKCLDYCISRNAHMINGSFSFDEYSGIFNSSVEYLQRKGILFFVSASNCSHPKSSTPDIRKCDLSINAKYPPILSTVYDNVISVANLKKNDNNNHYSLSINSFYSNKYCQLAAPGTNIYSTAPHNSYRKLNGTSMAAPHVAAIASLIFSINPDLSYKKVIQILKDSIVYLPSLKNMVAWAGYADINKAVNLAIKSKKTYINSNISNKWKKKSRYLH
# Experiment: co-purification (Blue Sepharose and Ni-NTA chromatography, SDS-PAGE); recombinant SUB1 secreted by baculovirus-infected insect cells, purified from culture supernatant on Blue Sepharose CL-6B and Ni-NTA agarose; prodomain seen beside the protease species on Coomassie-stained gels of the purified protein
binder,measurement,value
B1,binding,binds
